PubChem BioAssay (NCATS)
Shown are results outside the selection of hits, which stands elsewhere. Results filed as inconclusive are left out. Activity calls are given as the source filed them. The call rests on the fitted dose curve; in most records, active means well fitted curve in either direction with a large enough effect (not every such curve was filed as active); inconclusive means small, poorly fitted or top-dose-only effect, or another doubt; inactive means flat fitted curve, though single readings scatter.

Target: Mitogen-activated protein kinase 10 (Mus musculus) (UniProt Q61831)
Test: JNK3 AlphaScreen Assay (AID 530);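 further: kinase came from lysate of stimulated human HepG2 cells; signal reports phosphorylation of biotinylated GST-cJun 1-79 at Ser73 with 10 µM ATP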
Conditions: JNK3 lysate, c-Jun phosphorylation; at 57.1 µM (top of the series)
How it was run: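 Activity was read by AlphaScreen after JNK3-containing HepG2 lysate (cytokine pre-activated) phosphorylated biotinylated GST-cJun with 10 uM ATP at room temperature. Phospho-Ser73 cJun antibody with Protein-A acceptor beads provided detection.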
On the % scale 0 is the no-effect control and ±100 the full control effect.

Structure (SMILES) | activity change, negative = inhibition
Cc1ccc2ccccc2c1C | inactive: -18.7%
Cc1ccc(O)cc1C | inactive: 15.5%
